Data: patent US20210386709A1, “COMPOSITIONS AND METHODS FOR SUPPRESSING MSUT2” (United States Government As Represented By The Department …, priority 2020, published 2021)
For at least one entry, the source does not settle the construct or the ends of the probe. Tags and fusion partners may be left off the protein sequences shown.

Target: T1, MSUT2 ZF (ZC3H14 C-terminal CCCH zinc finger domain) (UniProt Q6PJT7)
T1 sequence (looked up): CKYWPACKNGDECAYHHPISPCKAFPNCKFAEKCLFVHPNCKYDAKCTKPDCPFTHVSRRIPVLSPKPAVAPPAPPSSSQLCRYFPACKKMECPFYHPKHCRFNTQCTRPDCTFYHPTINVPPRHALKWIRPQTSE
Assay: binding assay
Conditions: [none]; CITED Wheeler 2019; method not stated; purified recombinant protein; protein details: GST (pGEX-6P1); letters built from the parent sequence and the stated change

AAAAAAAAAAAAAAA [poly(A) RNA]
Kd: 60 nM
